Results on 2 molecules are retold here after article PMC8970588.

The target in this test is Egd2 NAC domain, yeast two-hybrid fusion (S. cerevisiae). In words: two-hybrid; reporter strain PJ69-4A; bait fused to Gal4 DNA-binding domain, prey fused to Gal4 activation domain; growth on SC-Leu-Trp-His (HIS3) and SC-Leu-Trp-Ade (ADE2) plates, 3 days at 30°C.

These are yes or no findings as the source states them, for the method shown. Binding can be weak; no strength is given. Where a sequence is shown, tags or fusion partners need not be part of it.

B1: full-length Btt1, yeast two-hybrid fusion (protein, UniProt P40314 1-149)
chain: MPVDQEKLAKLHKLSAANKVGGTRRKINKKGNLYNNNDKDNTKLQAELHKLHPMTIENVAEANFFKKNGKVLHFNSAVVQIAPQCNLTMIHGQPKENTLNGLYPSVASQLGSQELEYLTGLAHNLENEQTVLDQLGDRCSETKQQVMNS
On to B1, for which the binding entry is reported as “binds”.

B2: full-length Egd1, yeast two-hybrid fusion (protein, UniProt Q02642 1-157)
chain: MPIDQEKLAKLQKLSANNKVGGTRRKLNKKAGSSAGANKDDTKLQSQLAKLHAVTIDNVAEANFFKDDGKVMHFNKVGVQVAAQHNTSVFYGLPQEKNLQDLFPGIISQLGPEAIQALSQLAAQMEKHEAKAPADAEKKDEAIPELVEGQTFDADVE
In the case of B2, the binding result is reported as “binds”.
